In patent US20240245741A1, “EXTRACTION METHOD USING AN AQUEOUS ALKANEDIOL” (Minasolve SAS, priority 2021, published 2024):
At least one compound was matched to its structure with a doubt left.

Settings: 50% PG versus 80% aqueous ethanol
Experimental: All experiments were performed at ambient temperature. Each model substance was weighted into test tubes, and a precise volume of each solvent mixture was added in order to obtain saturated solutions. The test tubes were vortexed for 5 min and subsequently centrifuged (12000 rpm during 15 min at 25° C.). An aliquot of the supernatant was diluted for UV-spectrophotometric assay. Absorbance measurements were made at wavelengths adapted to each studied molecule. High Performance Liquid Chromatography (HPLC-DAD) was used for Rosmarinic Acid (RA) quantification. Determination of Radical Scavenging Capacity was conducted through DPPH assay.
Each experiment was performed in triplicate.
The solubilisation power of aqueous Pentylene Glycol solutions (from 0 to 100% of PG) for five different model substances was compared to that of 80 wt. % aqueous ethanol.
Various mixtures of bio-based PG and bio-based caprylyl glycol (CG) were explored for dissolving hesperidin. The proportion of bio-based caprylyl glycol ranged from 0 to 30%.
Regarding solubility in the ternary mixture of PG/CG/water, six different mixtures out of the monophasic region of the ternary system were prepared (see FIG. 2): Three water-rich solvent mixtures, one with a high percentage of PG, one with a high percentage of CG and one with a similar percentage of all three components. […]

With COc1ccc([C@@H]2CC(=O)c3c(O)cc(O[C@@H]4O[C@H](CO[C@@H]5O[C@@H](C)[C@H](O)[C@@H](O)[C@H]5O)[C@@H](O)[C@H](O)[C@H]4O)cc3O2)cc1O [HE, Hesperidin] the “Solubilization power relative to 80% aqueous ethanol” value was 1.7 times.
